The results are deposited in PubChem (AID1159506; NCATS, 2015).

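Luminescence from an EWS-FLI1 target-promoter (NR0B1) reporter, set against a CMV-promoter reporter, two days after silencing single genes in TC32 Ewing sarcoma cells.
Each siRNA was applied at 20 nM.
A z-score of the log NR0B1-over-CMV signal, less the median of siRNAs with the same seed; more negative means a stronger specific loss of the NR0B1 reporter.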

The strongest results of the screen are mostly left out here.
Sequences are the guide (antisense) strand, without overhang.

| strand | target gene | seed-corrected z-score |
|---|---|---|
| `UUCUGGGUAUCUGUGCUCU` | IGFBP3 | 1.251 |
| `AACCUUUGAGCAGAGACAC` | C2CD4C | 0.4008 |
| `UUUAGCCUUAUUUCCAUCC` | RAB18 | 0.1079 |
| `UACAGAUUUAGUCUUACCC` | CRH | -0.5548 |
| `UUGGGACAUCUGGAUGACA` | SHISA6 | -0.7821 |
| `ACCAUUGUCACUUGUAUGC` | RNF128 | -0.2172 |
| `UCCUUUACUAAGGAGCUCC` | RPS25 | 0.4094 |
| `UUUGCGAUGAUAGACAAUG` | NEB | -0.1236 |
| `UCUUUGAUUAAGGGCAAGC` | CYP2J2 | 0.5661 |
| `UGGGUUGUGAUAGUCGUCC` | LAT | -0.096 |
| `UAAUAGGUUCUGGAGAUUG` | LOC646030 | 0.6635 |
| `UGGGUUCAGAGGACAGGAG` | FRS3 | 0.1754 |
| `UCUCCAAGUAGUAAAUGUC` | SLC7A6OS | 0.1594 |
| `UCCAGGAUCCUGCGUAUGC` | KRT34 | -0.07486 |
| `UUCCCGAAUGAGCACAUUC` | AMHR2 | -0.1849 |
| `UCAGGUAGAAGGCUGAGAG` | MAN1C1 | -1.71 |
| `UUUCCCGAAAGUCUAUUCC` | RAB27B | -0.1944 |
| `UGUUUUCUCAAGACAGUCC` | RCAN1 | 1.036 |
| `UCAGCAUCUGCAUGUAAGC` | TMEM176B | 0.2229 |
| `UAUUUGGUGGUUGCUAUUC` | PDE11A | 0.5801 |
| `UUCGUGGUAACUUUGGUGG` | RBL1 | -0.7089 |
| `UCAAGUUCGAUGUAGAAUU` | IFNA8 | -0.06298 |
| `UUUUGCUCCCUAGCUGCUC` | C6orf47 | 0.4356 |
| `UUUACUUGUGCUCUUAUUC` | SERPINB13 | 0.07786 |
| `UUUCCAAAACUUUCCAUUC` | METTL24 | -0.2731 |
| `UAACUUUACUUCCAAAACC` | PARK7 | -0.0305 |
| `AAGAUAAUCGCAGACACCC` | WDFY1 | 0.4618 |
| `UGAUGGUGACGCGUUUAGC` | HIST1H3C | 0.4849 |
| `UUCACCAUCAUUAAGAUUU` | LOC728084 | 0.3924 |
| `UUGACCAGCAAUCAACUGU` | LOC646388 | -0.1541 |
| `UGAAGGAGAAGUCUCGGCC` | GRIN2C | 2.961 |
| `UCUAGUUCUACACUGGGUG` | ARID4B | 0.1644 |
| `AUCUGUUCCUCUUUCCGCC` | BCL9L | -0.2864 |
| `UAGAAUGCAAACCUUAUCA` | PPP1R1C | -0.711 |
| `AUACUGAGUGGUGUAAUGC` | TMPRSS3 | -0.1014 |
| `UUUCCAGUAGGUGAUGUAG` | JMJD4 | 0.0113 |
| `UUACAUUAAACAAGCAAGC` | TMEM189 | 1.157 |
| `UAGAUCAUCCUUACAGUCC` | SUPV3L1 | -0.2057 |
| `AUUGUAGUAAAACCUUUCU` | POLR2C | -0.1592 |
| `UUGUGAACCAGUAGUCACC` | THSD1 | 0.08657 |
| `UCCGGUUAUGUGGAAUGCC` | LINC00992 | 1.222 |
| `UCUAUUACUAAGUAUCUCC` | SMARCA5 | -0.8218 |
| `UUCUUCCCGAAGAGUUUGC` | C6orf132 | 0.02096 |
| `AAUAACAAAAACCACAUUC` | ITIH6 | 0.5719 |
| `CACGUUGUCGCUGUUGUCA` | GDF1 | -0.4444 |
| `AUCGUAGAAACCAUAGAUG` | PPP1CA | -0.56 |
| `UCCGAGACACCAACACUGC` | YIPF3 | 1.043 |
| `UGUGGGCAAAGAGACUAGG` | FAM43B | -0.3192 |
| `AACAUGACAGGAACUGUGG` | ACMSD | -0.2668 |
| `UAUCUUCCAAGUGGUUAGC` | PRMT7 | 1.014 |
| `UUUGAGGAAAUGUUGUCCC` | APOBEC4 | 0.5651 |
| `UGACUAGCAAGCACGGGAC` | ZNF324 | 0.5984 |
| `UGUAGUAUAACUACUCCAC` | DEPDC1 | 0.4986 |
| `UGGUUUACAAUCUUAACUC` | SOWAHD | 0.6794 |
| `UAUAGAAUACGGAGAAUAC` | OR14J1 | -0.5364 |
| `AACUGGUUUACUGUCGUUG` | STIM2 | -0.5598 |
| `UACGGAGAAAUUCCUGGUG` | ACTL9 | -0.6004 |
| `UACUUUCCAGCGGAAUACC` | NFIA | 0.324 |
| `UCCAGUUCUGUCAUGACUC` | SVBP | 0.8707 |
| `ACAGUGACAACAAUACACU` | NEURL3 | 0.936 |
| `UACGGAUGGAUUUAGGCAC` | OR14I1 | 0.1747 |
| `ACAAGUUCAAUUCUUCCUG` | CCL23 | -0.1499 |
| `UUCCGGCUUAGGGACCUCU` | NAT16 | 0.2977 |
| `AAUCGAUACAUAGUCUUGG` | TRMT10B | 0.7568 |
| `UCAAGAAUAACAAUUUGUC` | CCDC170 | -0.06468 |
| `AGCCUUCUCAUGUCCCUUG` | C2orf91 | -1.323 |
| `UCUGCAUCAGAAUUCUUGC` | NSMCE2 | -0.9151 |
| `UUUUCACCAUAUACCAUCC` | COX15 | 0.2561 |
| `ACAUUGUCACGGUAGUUGG` | PCDH12 | -0.8699 |
| `UGAUGAUCUAGAAUGAGAG` | REPS1 | -1.581 |
| `UUCCAUGUAGGCCUCAAUC` | ITPK1 | 0.08296 |
| `ACUUUUCUCUCCUCGAUGC` | SNX20 | 1.347 |
| `AAUACGUAUAUGGAUAGUG` | AGTPBP1 | 0.3107 |
| `UACGAGUCAGCAACUUCCC` | LOC728024 | 0.3573 |
| `GGCAAGCUCACCAAUACCU` | RPLP2P1 | -0.3273 |
| `AAAGAUUGCAGUAAUCGCC` | MFN1 | 0.8045 |
| `UAUAGCAACAUCUAAUCCG` | DUSP28 | -0.1641 |
| `UUUCAGGAAAGCGAAUUCC` | BLVRA | 0.6732 |
| `AAUAUUAACAUAAUGACUG` | CXCL1 | 0.4762 |
| `UAGGGCAUAUACUACAUCC` | HIST1H4C | -0.6725 |
| `AAAUUAUACAAAAAGGGAG` | PTMS | -1.257 |
| `UAACGAAUAGGCUCGAGGC` | PCDHB4 | 0.3325 |

For reference, 6 entries once more:

UGUAGUAUAACUACUCCAC against DEPDC1 gave seed-corrected z-score 0.4986.
UCUUUGAUUAAGGGCAAGC against CYP2J2 gave seed-corrected z-score 0.5661.
AAAUUAUACAAAAAGGGAG against PTMS gave seed-corrected z-score -1.257.
UUCCGGCUUAGGGACCUCU against NAT16 gave seed-corrected z-score 0.2977.
UUCUGGGUAUCUGUGCUCU against IGFBP3 gave seed-corrected z-score 1.251.
UCCAGGAUCCUGCGUAUGC against KRT34 gave seed-corrected z-score -0.07486.